Paper doi:10.1101/865998 (bioRxiv, 2019)
Results are given in words; binding and its absence hold for the method and conditions named. Some binding calls cover weakened binding; strength is not graded here.

By UniProt entry, the sequences of proteins in these tests, tags left out. Residues count along the entry.
UniProt P49238: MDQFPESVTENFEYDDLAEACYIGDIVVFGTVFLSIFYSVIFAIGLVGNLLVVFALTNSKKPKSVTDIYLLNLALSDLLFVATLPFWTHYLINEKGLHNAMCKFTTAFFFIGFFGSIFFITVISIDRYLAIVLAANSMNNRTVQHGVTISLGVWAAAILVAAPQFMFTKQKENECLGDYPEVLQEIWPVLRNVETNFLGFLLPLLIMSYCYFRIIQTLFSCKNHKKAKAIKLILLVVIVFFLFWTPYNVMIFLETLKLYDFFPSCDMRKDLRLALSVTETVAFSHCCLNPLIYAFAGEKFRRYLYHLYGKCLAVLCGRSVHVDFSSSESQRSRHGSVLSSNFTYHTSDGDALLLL
UniProt P78423, residues 25-341: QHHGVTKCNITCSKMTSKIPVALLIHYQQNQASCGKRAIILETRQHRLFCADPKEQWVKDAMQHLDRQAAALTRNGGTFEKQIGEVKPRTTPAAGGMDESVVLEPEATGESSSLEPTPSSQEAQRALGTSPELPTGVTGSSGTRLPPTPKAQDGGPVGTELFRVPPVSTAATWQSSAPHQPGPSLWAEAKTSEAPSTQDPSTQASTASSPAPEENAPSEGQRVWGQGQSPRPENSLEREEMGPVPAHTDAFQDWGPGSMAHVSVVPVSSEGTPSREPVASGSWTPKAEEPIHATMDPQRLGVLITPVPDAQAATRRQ

Biological target: CX3CR1 on CHO cells expressing CX3CR1 (CHO_(CX3CR1)) (UniProt P49238)
Experiment: LigandTracer

Substance: fluorescent CX3CL1-AF647 (from UniProt P78423) (ligand)
- binding: binds
